Measured data: PubChem BioAssay AID1159578 (Peter MacCallum Cancer Centre, 2015)
Here is one part, drawn at random, of about 18,000 deposited reagents. Over the whole deposit, about 1,030 (5.7%) got an active call. 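Inactive calls also include pools with fewer than 3300 nuclei, whose migration was not assessed.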 Raw values are not corrected between plates.

Aim: 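Knock-downs that alter how fast lymphatic endothelial cells migrate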 (primary screen)
System: human lymphatic endothelial cells
Reagent: siRNA pool against human genes, 40 nM
Timing: 48 h after transfection
Detection: 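High-content imaging of dye-stained cells in a scratch assay measures filled wound area and nuclei per well; duplicate means given as ratio to mock and robust z-score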
Reading the numbers: migration robust z-score: higher = faster migration into the scratch; migration relative to mock: higher = more scratch area covered than mock; nuclei per well: higher = more cells in the well
Active means: 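Pools averaging fewer than 3300 nuclei are never called; remaining pools count as changed when migration robust z lies outside -2 to 2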
Calls: active = migration changed; inactive = no migration change, or too few cells

target | migration robust z-score | migration class with cell-count check | migration relative to mock | nuclei per well, duplicate mean | activity call
NAA20 | 0.57 | migration z between -2 and 2; enough cells | 0.92 | 4989 | inactive
CCR1 | 0.36 | migration z between -2 and 2; enough cells | 0.88 | 6346 | inactive
PLEKHA4 | -1.39 | migration z between -2 and 2; enough cells | 0.52 | 5832 | inactive
IQGAP3 | 2.16 | migration z above 2; enough cells | 1.44 | 5616 | active
KIF14 | -1.17 | migration z between -2 and 2; enough cells | 0.58 | 4656 | inactive
SPMIP10 | -0.98 | migration z between -2 and 2; enough cells | 0.63 | 5668 | inactive
RBM15B | 0.55 | migration z between -2 and 2; enough cells | 1.03 | 5036 | inactive
HIGD1B | -2.64 | migration z below -2; enough cells | 0.19 | 5398 | active
CASP10 | -0.9 | migration z between -2 and 2; enough cells | 0.63 | 5060 | inactive
KIR3DL3 | 0.73 | migration z between -2 and 2; enough cells | 0.94 | 7002 | inactive
ANKRD42 | -1.23 | migration z between -2 and 2; enough cells | 0.57 | 5128 | inactive
MILR1 | 0.5 | migration z between -2 and 2; enough cells | 1.02 | 6652 | inactive
GRTP1 | 1.18 | migration z between -2 and 2; enough cells | 1.19 | 5908 | inactive
CDCA8 | -0.8 | migration z between -2 and 2; enough cells | 0.68 | 3846 | inactive
SNX15 | 0.46 | migration z between -2 and 2; enough cells | 1 | 5342 | inactive
PRPSAP1 | 0.05 | migration z between -2 and 2; enough cells | 0.9 | 5821 | inactive
STPG1 | -0.86 | migration z between -2 and 2; enough cells | 0.66 | 4212 | inactive
CACNG6 | -0.8 | migration z between -2 and 2; enough cells | 0.65 | 5304 | inactive
ZCCHC10 | 0.36 | migration z between -2 and 2; enough cells | 0.98 | 5834 | inactive
CDY1B | -0.26 | migration z between -2 and 2; enough cells | 0.82 | 5504 | inactive
CNTFR | -0.57 | migration z between -2 and 2; enough cells | 0.7 | 5100 | inactive
TRIM27 | -2.21 | migration z below -2; enough cells | 0.38 | 3357 | active
APAF1 | -0.8 | migration z between -2 and 2; enough cells | 0.65 | 5916 | inactive
